The supplement of paper PMC10735217
Structures can show the parent of a compound that is named as a salt. The list shows a part of the results. Single values are uncertain here, since repeats match poorly.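 Human kidney-derived cells stably carry a construct in which eight TEAD-binding elements drive luciferase, measured by luminescence in a drug-repurposing library screen. A hit is any compound whose signal exceeds the plate mean by more than five robust Z scores.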

System: HEK293A TEAD-LUC reporter
Assay: TEAD-luciferase reporter activity (YAP activation), robust Z score vs plate; higher = stronger YAP/TEAD activation
Details: 24 h

Compound	TEAD-luciferase reporter activity (compound concentration: 200 nM)	TEAD-luciferase reporter activity (compound concentration: 2 uM)	TEAD-luciferase reporter activity (compound concentration: 10 uM)
CCn1cc2c3c(cccc31)C1CC(NC(=O)n3nc(C)cc3C)CN(C)C1C2 (stereo not drawn)	inactive: 1.93	inactive: 0.0851	inactive: -1.06
OC(O)C(Cl)(Cl)Cl [chloral hydrate, MacroChem]	inactive: 0.0289	inactive: -0.449	inactive: 2.54
CC1=C(C)C(=O)C(CC[C@](C)(O)CCC[C@H](C)CCC[C@H](C)CCCC(C)C)=C(C)C1=O [alpha-Tocopherolqui]	inactive: -0.198	inactive: -0.3	inactive: 1.24
CC1(C)CC(O)CC(C)(C)N1[O] [Tempol]		inactive: -0.732	
CC1(C)CC(O)CC(C)(C)N1[O]	inactive: -0.804		inactive: 1.65
CC(C(=O)O[C@H]1C[N+]2(CCc3ccc(F)cc3)CCC1CC2)(c1ccccc1)N1CCCCC1 (stereo partly drawn)	inactive: 0.823	inactive: 0.15	inactive: 0.0242
CC12CC[C@H]3[C@@H](CC[C@H]4C[C@H](N)[C@@H](O)CC43C)[C@@H]1CCC2=O (stereo partly drawn)	inactive: -0.836	inactive: -0.387	inactive: 0.693
CCCCCCCCCCC(=O)O[C@H]1CC[C@H]2[C@@H]3CCC4=CC(=O)CC[C@]4(C)[C@H]3CC[C@]12C [testosterone undecanoate]	inactive: -1.71	inactive: 1.26	inactive: -0.328
CCC(=O)N(c1ccc(Cl)c(Cl)c1)[C@@H]1CCC[C@H]1N(C)C [eclanamine]	inactive: -0.872	inactive: -1.24	inactive: -1.75
C[N+]1(CCF)C2CCC1CC(OC(=O)C(O)(c1ccccc1)c1ccccc1)C2 (stereo not drawn)	inactive: 3.2	inactive: -1.51	inactive: 1.16
CCC(C)CC(C)N (stereo not drawn)	inactive: -0.376	inactive: -0.242	inactive: -0.803
Cc1ccc(C2C(=O)NC(=O)NC2=O)cc1	inactive: -0.601	inactive: 0.0565	inactive: 2.12
NC1=NCC(c2ccc(Cl)cc2)O1 (stereo not drawn)	inactive: -0.28	inactive: -1.69	inactive: -0.261
O=C(O[C@H]1CN2CCC1CC2)N(Cc1cc(F)c(F)c(F)c1)c1cccc(F)c1 [tarafenacin]	inactive: -0.836	inactive: -0.0305	inactive: -0.234
Clc1ccc([C@]23CNC[C@H]2C3)cc1Cl [Amitifadine]	inactive: -0.795	inactive: 0.604	inactive: 4.33
CCOc1ccc2c3c1O[C@H]1[C@@H](O)C=C[C@H]4[C@@H](C2)N(C)CC[C@@]341 [Ethylmorphine]	inactive: 1.46		inactive: -0.0979
Cc1cc2c(C(F)(F)F)c(C#N)ccc2n1Cc1noc(-c2cccc(C(F)(F)F)c2)n1	inactive: -1.63	inactive: -0.876	inactive: -0.136
COc1ccc2[nH]c(=O)n(C(=O)O[C@H]3C[C@H]4CC[C@@H](C3)N4C)c2c1	inactive: 0.281	inactive: -1.32	inactive: 2.11
O=c1[nH]c2ccccc2n1C1CCN(CCCc2noc3cc(F)ccc23)CC1 [neflumozide]	inactive: 0.0638	inactive: -1.13	inactive: -1.6
C/C1=C/C[C@@H](/C(C)=C/c2csc(C)n2)OC(=O)C[C@H](O)C(C)(C)C(=O)[C@H](C)[C@@H](O)[C@@H](C)CCC1 [Desoxyepothilone B]	inactive: -3.8	inactive: -0.13	inactive: -0.256

Full records from above:
CC(C(=O)O[C@H]1C[N+]2(CCc3ccc(F)cc3)CCC1CC2)(c1ccccc1)N1CCCCC1 (stereo partly drawn) reads TEAD-luciferase reporter activity (compound concentration: 200 nM): inactive: 0.823; TEAD-luciferase reporter activity (compound concentration: 2 uM): inactive: 0.15; TEAD-luciferase reporter activity (compound concentration: 10 uM): inactive: 0.0242
O=c1[nH]c2ccccc2n1C1CCN(CCCc2noc3cc(F)ccc23)CC1 [neflumozide] reads TEAD-luciferase reporter activity (compound concentration: 200 nM): inactive: 0.0638; TEAD-luciferase reporter activity (compound concentration: 2 uM): inactive: -1.13; TEAD-luciferase reporter activity (compound concentration: 10 uM): inactive: -1.6
CC1=C(C)C(=O)C(CC[C@](C)(O)CCC[C@H](C)CCC[C@H](C)CCCC(C)C)=C(C)C1=O [alpha-Tocopherolqui] reads TEAD-luciferase reporter activity (compound concentration: 200 nM): inactive: -0.198; TEAD-luciferase reporter activity (compound concentration: 2 uM): inactive: -0.3; TEAD-luciferase reporter activity (compound concentration: 10 uM): inactive: 1.24

(cont.)

Compound	TEAD-luciferase reporter activity (compound concentration: 200 nM)	TEAD-luciferase reporter activity (compound concentration: 2 uM)	TEAD-luciferase reporter activity (compound concentration: 10 uM)
C[N+]1([O-])C2CCC1CC(OC(=O)C(CO)c1ccccc1)C2 (stereo not drawn)	inactive: -1.96	inactive: -0.604	inactive: 0.132
CN(C)C(=O)c1cncc(-c2cn(CC3(F)CCOCC3)c(C(C)(C)C)n2)n1	inactive: -0.0165	inactive: 1.61	inactive: 0.448
CN1CC[C@]23CCCC[C@H]2[C@H]1Cc1ccc(O)cc13 (stereo in doubt)	inactive: -1.29		inactive: -2.54
CC1CNS(=O)(=O)N(c2ccc3c(C#N)nccc3c2)C1 (stereo not drawn)	inactive: 0.178	inactive: 0.0589	inactive: -0.77
Cn1cc(CCN2CCN(c3ccccc3Cl)CC2)cn1	inactive: -2.63	inactive: 0.973	inactive: 2.67
CCNCC(O)c1cccc(O)c1 (stereo not drawn) [etilefrine]	inactive: -0.557		inactive: 0.892
CCNCC(O)c1cccc(O)c1 (stereo not drawn)		inactive: -0.361	
Cc1nc2ccccc2c(=O)n1-c1ccccc1Cl	inactive: -1.35	inactive: -1.95	inactive: 4.58
C=C1CC2(CCNCC2)OC1C (stereo not drawn)	inactive: -0.94	inactive: -2.42	inactive: 0.462
CC(C)(C)C(=O)OC1N=C(c2ccccc2)c2cc(Cl)ccc2NC1=O (stereo not drawn)	inactive: 0.0327	inactive: -0.933	inactive: -1.45
CC(Cc1ccccc1)[n+]1cc(/N=C(\[O-])Nc2ccccc2)on1 (stereo not drawn)	inactive: -1.21	inactive: -0.707	inactive: -0.622
Cn1c(CCCC(=O)O)nc2cc(N(CCCl)CCCl)ccc21 [Bendamustine hydrochloride]	inactive: -0.262	inactive: -1.16	inactive: 2.36
CCSSCC12CCC(=O)C=C1CC[C@H]1[C@@H]3CCC(=O)C3(C)CC[C@@H]12 (stereo partly drawn)	inactive: -0.508	inactive: -1.59	inactive: -1.1
CC(=O)[C@H]1CC[C@H]2[C@@H]3CC[C@H]4C[C@H](O)CC[C@]4(C)[C@H]3CC[C@]12C [Allopregnanolone]		inactive: -1.41	
CC(=O)[C@H]1CC[C@H]2[C@@H]3CC[C@H]4C[C@H](O)CC[C@]4(C)[C@H]3CC[C@]12C [(3?,5?)-3-Hydroxy-pregnan-20-one]	inactive: -1.49		inactive: 3.19
NC(=O)OCC(N)Cc1ccccc1 (stereo not drawn)	inactive: 2.45	inactive: 0.946	inactive: -1.26
Cn1cc(C2=C(c3cn(C4CCN(Cc5ccccn5)CC4)c4ccccc34)C(=O)NC2=O)c2ccccc21 [enzastaurin hydrochloride]	inactive: -2.69	inactive: -1.25	inactive: 1.92
CC12CCC(=O)C=C1CC[C@@H]1[C@@H]2CCC2(C)[C@@H](O[Si](C)(C)C)CC[C@@H]12 (stereo partly drawn)	inactive: -0.137	inactive: -1.28	inactive: 0.0905
NC1CC1c1ccccc1 (stereo not drawn) [Tranylcypromine sulfate]		inactive: -2.09	
NC1CC1c1ccccc1 (stereo not drawn) [Tranylcypromine hydrochloride]	inactive: 1.67		inactive: 0.73

Compound	TEAD-luciferase reporter activity (compound concentration: 200 nM)	TEAD-luciferase reporter activity (compound concentration: 2 uM)	TEAD-luciferase reporter activity (compound concentration: 10 uM)
CN1[C@@H]2CC=C(C(=O)O)[C@H]1CC2 [Ecgonine, derivative of]	inactive: 0.292	inactive: -0.497	inactive: 1.4
C[C@]12C=CC(=O)C=C1CC[C@@H]1[C@@H]2CC[C@@]2(C)[C@H]1CC[C@]2(C)O	inactive: -0.906	inactive: 1.11	inactive: 0.0717
CC[C@@]1(O)C(=O)OCc2c1cc1n(c2=O)Cc2c-1nc1ccccc1c2/C=N/OCCN	inactive: -1.69	inactive: -0.63	inactive: -0.581
CCC[C@]1(O)CC[C@H]2[C@@H]3CCC4=CC(=O)CCC4(C)[C@H]3CCC21C (stereo partly drawn) [topterone]	inactive: -0.574	inactive: 0.2	inactive: 0.801
CC1[O][Pt-2]2([NH]C[C@@H]3CC[C@H]3C[NH]2)[O]C1=O (stereo partly drawn) [Lobaplatin]	inactive: -0.814		inactive: 1.05
CCOC(=O)NC1=C(N2CC2)C(=O)C(NC(=O)OCC)=C(N2CC2)C1=O	inactive: -0.156	inactive: -1.12	inactive: -0.981
CC[C@@H](CO)NC(=O)[C@@H]1C=C2c3cccc4[nH]cc(c34)C[C@H]2N(C)C1	inactive: 0.786		inactive: 2.03
CC[C@@H](CO)NC(=O)[C@@H]1C=C2c3cccc4[nH]cc(c34)C[C@H]2N(C)C1 [Methylergonovine maleate]		inactive: -0.0251	
CCOP(=O)(OCC)OCC	inactive: -0.578	inactive: 0.546	inactive: -1.19
CCCN(CCC)C1CCc2cccc(-c3ccno3)c2C1 (stereo not drawn)	inactive: -0.855	inactive: -0.639	inactive: 0.0313
O=c1ccc2cccc(N3CCNCC3)c2o1 [batoprazine]	inactive: -0.967	inactive: -1.35	inactive: -1.51
NC(=O)OCC(F)(COC(N)=O)c1ccccc1	inactive: -1.32	inactive: -0.766	inactive: 2.63
O=C([O-])C(F)(F)C(F)(F)C(F)(F)C(F)(F)C(F)(F)C(F)(F)C(F)(F)F [Ammonium pentadecafluorooctanoate]	inactive: -0.983	inactive: 1.78	inactive: 1.29
CNCC(O)c1ccc(O)cc1 (stereo not drawn) [Synephrine]		inactive: -1.22	
CNCC(O)c1ccc(O)cc1 (stereo not drawn)	inactive: -1.1		inactive: 0.018
CCOC(=O)c1ncc2[nH]c3cccc(OCc4ccccc4)c3c2c1COC	inactive: 1.24	inactive: -0.359	inactive: -1.1
C=CC1CCC2OC2C1 (stereo not drawn)	inactive: -2.51	inactive: -1.02	inactive: -1.17
CC1=C2C[C@H]3[C@@H](CC=C4CC(O)CCC43C)[C@@H]2CC[C@]12O[C@@H]1CC(C)CN[C@H]1[C@H]2C (stereo partly drawn)	inactive: -0.409	inactive: -0.302	inactive: -0.242
